# Patent US5506207A (The Salk Institute for Biological Studies, priority 1994, dated 1996)
# Assay: general procedure: Boc solid-phase peptide synthesis; MBHA resin (0.76 mM/g); DCC; DIC
# Conditions: whole synthesis, CZE and RP-HPLC with aqueous TEAP buffer plus acetonitrile, scale of the general procedure about 3 grams of MBHA resin
substance,measurement,value
"[Ac-β-D-2NAL^1, (4Cl)D-Phe^2, D-3PAL^3, Aph(Gly)(atz)^5, D-Aph(Gly)(atz)^6, ILys^8, D-Ala^10 ]-GnRH",final HPLC purity,about 97%-98%
